The source of these data is paper PMC11271478.

Chains of the proteins cited; added tags and fusions are not shown.
UniProt E9Q401: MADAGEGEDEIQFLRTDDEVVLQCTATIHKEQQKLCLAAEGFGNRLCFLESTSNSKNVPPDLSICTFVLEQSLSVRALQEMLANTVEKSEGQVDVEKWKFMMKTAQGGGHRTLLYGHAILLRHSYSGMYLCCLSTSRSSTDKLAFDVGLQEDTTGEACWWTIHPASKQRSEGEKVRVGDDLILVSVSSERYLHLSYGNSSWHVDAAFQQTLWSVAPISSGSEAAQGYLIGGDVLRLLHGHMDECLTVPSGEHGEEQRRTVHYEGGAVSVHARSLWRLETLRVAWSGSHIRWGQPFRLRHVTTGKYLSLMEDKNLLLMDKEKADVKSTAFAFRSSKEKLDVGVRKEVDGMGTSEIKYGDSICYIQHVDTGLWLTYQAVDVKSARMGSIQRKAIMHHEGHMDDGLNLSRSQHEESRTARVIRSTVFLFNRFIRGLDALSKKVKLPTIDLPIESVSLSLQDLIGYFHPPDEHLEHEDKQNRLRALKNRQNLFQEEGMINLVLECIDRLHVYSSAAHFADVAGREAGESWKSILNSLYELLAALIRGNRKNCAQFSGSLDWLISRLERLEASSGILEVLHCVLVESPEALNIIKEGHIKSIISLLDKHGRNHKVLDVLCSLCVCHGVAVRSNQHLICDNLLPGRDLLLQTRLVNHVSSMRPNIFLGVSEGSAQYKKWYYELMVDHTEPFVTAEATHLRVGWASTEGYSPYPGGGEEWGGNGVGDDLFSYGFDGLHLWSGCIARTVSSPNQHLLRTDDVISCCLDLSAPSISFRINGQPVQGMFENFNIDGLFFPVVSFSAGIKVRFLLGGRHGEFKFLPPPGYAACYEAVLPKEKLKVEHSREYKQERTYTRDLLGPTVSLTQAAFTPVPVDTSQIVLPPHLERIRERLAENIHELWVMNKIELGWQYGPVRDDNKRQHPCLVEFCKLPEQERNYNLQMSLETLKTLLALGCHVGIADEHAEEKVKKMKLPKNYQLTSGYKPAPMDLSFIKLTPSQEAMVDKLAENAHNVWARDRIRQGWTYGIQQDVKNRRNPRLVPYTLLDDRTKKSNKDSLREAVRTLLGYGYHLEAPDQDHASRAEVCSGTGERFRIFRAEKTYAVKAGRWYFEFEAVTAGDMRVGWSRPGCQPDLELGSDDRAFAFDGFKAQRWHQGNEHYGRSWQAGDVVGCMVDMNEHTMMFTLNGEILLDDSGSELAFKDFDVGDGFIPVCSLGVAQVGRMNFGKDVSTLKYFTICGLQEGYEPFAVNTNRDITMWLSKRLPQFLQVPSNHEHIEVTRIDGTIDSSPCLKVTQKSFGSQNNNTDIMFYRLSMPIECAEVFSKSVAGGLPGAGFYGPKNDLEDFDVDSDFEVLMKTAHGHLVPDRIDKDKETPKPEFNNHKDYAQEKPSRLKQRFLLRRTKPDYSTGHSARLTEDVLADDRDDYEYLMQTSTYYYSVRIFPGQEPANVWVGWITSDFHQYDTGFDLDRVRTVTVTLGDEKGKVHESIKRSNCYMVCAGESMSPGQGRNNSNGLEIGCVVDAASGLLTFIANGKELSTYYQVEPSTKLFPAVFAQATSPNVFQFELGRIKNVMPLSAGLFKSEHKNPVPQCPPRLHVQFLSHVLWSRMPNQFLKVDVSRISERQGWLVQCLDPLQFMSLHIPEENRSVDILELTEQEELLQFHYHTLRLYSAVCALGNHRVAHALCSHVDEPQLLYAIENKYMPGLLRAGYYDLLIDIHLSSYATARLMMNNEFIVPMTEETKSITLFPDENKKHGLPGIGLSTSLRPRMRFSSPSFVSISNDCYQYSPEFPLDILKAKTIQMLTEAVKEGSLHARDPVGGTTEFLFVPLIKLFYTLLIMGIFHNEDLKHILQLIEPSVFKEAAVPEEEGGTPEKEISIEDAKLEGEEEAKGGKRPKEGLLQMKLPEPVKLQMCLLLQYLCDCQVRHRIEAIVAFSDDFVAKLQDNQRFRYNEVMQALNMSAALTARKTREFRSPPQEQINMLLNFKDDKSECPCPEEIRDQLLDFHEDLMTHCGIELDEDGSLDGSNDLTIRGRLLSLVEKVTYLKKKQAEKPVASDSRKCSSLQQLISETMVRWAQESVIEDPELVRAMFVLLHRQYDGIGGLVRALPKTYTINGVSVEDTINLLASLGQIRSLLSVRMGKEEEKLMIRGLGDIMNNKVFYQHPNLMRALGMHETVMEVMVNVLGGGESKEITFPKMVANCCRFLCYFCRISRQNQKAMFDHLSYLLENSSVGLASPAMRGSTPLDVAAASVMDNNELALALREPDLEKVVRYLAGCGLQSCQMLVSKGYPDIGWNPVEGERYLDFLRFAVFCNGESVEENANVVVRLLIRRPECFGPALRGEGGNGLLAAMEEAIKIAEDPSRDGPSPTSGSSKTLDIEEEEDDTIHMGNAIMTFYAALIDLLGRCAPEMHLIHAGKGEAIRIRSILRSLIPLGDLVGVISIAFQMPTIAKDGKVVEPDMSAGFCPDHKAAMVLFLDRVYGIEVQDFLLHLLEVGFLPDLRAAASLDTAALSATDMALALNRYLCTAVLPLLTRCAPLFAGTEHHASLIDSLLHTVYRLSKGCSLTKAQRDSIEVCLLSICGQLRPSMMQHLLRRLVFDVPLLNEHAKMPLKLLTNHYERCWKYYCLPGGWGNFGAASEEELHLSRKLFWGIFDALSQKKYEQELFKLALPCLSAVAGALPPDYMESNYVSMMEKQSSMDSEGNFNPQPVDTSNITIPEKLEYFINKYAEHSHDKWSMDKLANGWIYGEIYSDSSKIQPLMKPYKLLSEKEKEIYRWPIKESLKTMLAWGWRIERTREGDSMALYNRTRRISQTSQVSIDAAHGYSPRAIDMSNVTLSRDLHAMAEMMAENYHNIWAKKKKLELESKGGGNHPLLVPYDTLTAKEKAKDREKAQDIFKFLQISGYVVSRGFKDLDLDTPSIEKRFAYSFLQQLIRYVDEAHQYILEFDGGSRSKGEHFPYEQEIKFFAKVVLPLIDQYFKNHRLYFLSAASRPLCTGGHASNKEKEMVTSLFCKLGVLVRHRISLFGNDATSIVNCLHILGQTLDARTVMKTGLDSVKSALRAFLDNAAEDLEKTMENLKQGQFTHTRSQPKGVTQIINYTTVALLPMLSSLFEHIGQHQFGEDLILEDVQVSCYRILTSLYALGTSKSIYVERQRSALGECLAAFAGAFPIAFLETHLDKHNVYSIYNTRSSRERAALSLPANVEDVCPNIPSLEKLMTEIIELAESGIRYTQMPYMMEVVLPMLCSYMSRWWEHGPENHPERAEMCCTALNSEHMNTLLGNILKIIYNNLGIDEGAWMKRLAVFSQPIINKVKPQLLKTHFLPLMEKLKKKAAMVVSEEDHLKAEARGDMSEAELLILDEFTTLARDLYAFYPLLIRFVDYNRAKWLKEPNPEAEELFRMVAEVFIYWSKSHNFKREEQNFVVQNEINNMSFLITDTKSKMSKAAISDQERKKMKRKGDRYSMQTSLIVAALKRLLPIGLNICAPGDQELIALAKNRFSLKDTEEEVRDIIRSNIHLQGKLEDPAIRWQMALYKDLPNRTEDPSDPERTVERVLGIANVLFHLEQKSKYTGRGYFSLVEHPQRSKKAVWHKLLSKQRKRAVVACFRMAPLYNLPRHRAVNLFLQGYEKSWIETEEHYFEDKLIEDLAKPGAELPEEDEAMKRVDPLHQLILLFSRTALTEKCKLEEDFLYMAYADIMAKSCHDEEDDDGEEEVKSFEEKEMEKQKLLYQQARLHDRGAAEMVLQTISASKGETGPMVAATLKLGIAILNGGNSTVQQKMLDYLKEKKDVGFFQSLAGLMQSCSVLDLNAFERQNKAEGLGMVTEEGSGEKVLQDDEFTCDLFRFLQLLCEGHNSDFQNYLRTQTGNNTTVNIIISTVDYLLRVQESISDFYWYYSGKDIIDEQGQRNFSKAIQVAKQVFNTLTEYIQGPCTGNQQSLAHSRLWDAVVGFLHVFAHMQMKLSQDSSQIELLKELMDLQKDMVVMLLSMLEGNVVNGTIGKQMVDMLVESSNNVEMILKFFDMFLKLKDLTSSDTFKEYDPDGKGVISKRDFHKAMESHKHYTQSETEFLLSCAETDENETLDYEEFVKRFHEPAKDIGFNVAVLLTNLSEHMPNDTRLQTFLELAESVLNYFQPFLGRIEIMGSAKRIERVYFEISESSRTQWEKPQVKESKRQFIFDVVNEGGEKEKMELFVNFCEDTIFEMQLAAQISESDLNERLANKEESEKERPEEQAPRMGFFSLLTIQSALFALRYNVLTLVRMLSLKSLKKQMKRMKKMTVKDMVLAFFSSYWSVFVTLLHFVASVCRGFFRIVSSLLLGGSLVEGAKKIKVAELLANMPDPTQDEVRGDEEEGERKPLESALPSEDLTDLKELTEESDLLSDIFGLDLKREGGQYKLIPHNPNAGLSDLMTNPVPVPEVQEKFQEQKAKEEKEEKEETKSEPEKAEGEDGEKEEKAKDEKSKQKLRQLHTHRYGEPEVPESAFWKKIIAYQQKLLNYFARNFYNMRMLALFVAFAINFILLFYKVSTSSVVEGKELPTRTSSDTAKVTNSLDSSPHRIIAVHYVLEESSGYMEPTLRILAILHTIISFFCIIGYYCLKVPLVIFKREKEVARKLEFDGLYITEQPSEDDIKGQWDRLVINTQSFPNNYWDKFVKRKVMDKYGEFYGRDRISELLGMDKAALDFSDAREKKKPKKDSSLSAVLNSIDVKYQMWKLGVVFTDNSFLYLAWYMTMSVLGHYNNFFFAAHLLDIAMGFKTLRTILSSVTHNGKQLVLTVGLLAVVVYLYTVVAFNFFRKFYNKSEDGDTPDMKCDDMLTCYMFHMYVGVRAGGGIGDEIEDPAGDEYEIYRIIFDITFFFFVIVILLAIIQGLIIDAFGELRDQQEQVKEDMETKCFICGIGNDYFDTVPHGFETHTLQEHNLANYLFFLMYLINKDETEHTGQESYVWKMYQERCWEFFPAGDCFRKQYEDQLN

Test [1] deals with RyR2 (mouse brain) (mouse (endogenous in whole brain)) (UniProt E9Q401). Kind of test: co-IP; whole brain lysates of six-month-old mice; RyR2 immunoprecipitated with Protein G Dynabeads; WFS1 and CISD2 assessed in the immunocomplex.
The target in a further test is T1, EGFP-WFS1 (UniProt O76024).
T1 sequence: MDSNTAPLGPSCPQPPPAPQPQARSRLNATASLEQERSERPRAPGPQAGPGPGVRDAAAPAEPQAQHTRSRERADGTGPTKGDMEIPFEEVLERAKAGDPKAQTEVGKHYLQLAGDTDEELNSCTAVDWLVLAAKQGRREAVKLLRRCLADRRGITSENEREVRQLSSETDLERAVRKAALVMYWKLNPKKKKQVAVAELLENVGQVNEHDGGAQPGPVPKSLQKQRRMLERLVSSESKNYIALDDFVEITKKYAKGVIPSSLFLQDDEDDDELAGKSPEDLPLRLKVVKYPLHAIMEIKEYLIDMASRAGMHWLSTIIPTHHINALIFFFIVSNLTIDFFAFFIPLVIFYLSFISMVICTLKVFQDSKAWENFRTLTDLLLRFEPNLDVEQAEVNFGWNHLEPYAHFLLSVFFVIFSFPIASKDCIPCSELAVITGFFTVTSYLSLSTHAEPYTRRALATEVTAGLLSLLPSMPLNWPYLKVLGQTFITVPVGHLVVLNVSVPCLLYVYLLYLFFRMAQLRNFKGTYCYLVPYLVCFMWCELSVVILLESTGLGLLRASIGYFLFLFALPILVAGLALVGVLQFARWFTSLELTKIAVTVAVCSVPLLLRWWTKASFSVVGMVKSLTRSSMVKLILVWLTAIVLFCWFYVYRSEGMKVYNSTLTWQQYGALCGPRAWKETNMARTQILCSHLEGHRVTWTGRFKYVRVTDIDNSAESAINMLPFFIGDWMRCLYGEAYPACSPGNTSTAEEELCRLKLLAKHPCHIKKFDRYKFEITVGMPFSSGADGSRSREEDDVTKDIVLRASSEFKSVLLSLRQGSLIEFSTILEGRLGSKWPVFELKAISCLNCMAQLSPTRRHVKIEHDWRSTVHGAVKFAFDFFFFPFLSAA
Kind of test: co-IP; EGFP-WFS1 immunoprecipitated from transfected HEK293 cell lysate with GFP-Trap (Proteintech protocol); CISD2-myc detected with anti-myc antibodies.

The target of test [2] is T2, endogenous CISD2 (HEK293) (human (endogenous in HEK293)) (UniProt Q8N5K1).
T2 sequence: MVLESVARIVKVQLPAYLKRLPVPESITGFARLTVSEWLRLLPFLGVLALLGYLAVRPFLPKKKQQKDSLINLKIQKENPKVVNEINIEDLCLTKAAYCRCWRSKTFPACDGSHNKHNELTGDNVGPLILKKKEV
Kind of test: co-IP; non-transfected HEK293 cell lysate; CISD2 immunoprecipitated with mouse anti-CISD2 on rec-Protein G-Sepharose 4B beads; WFS1 detected with rabbit anti-WFS1.

Results are given in words; binding and its absence hold for the method and conditions named. Binding seen in cells or lysates may run through a third protein. Some binding calls cover weakened binding; strength is not graded here. For some of these results: Sequences can lack the tags named with a protein.

B1: endogenous WFS1 (mouse brain) (protein, UniProt P56695 1-890)
chain: MNSGTPPPSPSGPPPPPAPQPQARARLNATASLEQDKIEPPRAPRPQADPSAGRSAGEAAAPEPRAPQTGSREETDRAGPMKADVEIPFEEVLEKAKAGDPKAQTEVGKHYLRLANDADEELNSCSAVAWLILAAKQGRREAVKLLRRCLADRKGITSENEAEVKQLSSETDLERAVRKAALVMYWKLNPKKKKQVAVSELLENVGQVNEQDGGAQPGPVPKSLQKQRRMLERLVSSESKNYIALDDFVELTKKYAKGIIPTNLFLQDEDEDEDELAGKSPEDLPLRQKVVKYPLHAIMEIKEYLIDVASKAGMHWLSTIVPTHHINALIFFFIISNLTIDFFAFFIPLVVFYLSFVSMVICTLKVFQDSKAWENFRTLTDLLLRFEPNLDVEQAEVNFGWNHLEPYIHFLLSVVFVIFSFPLASKDCIPCSELAVISTFFTVTSYMSLSSSAEPYTRRALVTEVAAGLLSLLPTVPVDWRFLKVLGQTFFTVPVGHFIILNVSLPCLLYVYLFYLFFRMAQLRNFKGTYCYLVPYLVCFMWCELSVVILLQSTGLGLVRASIGYFLFLFALPILVAGLALMGTVQFARWFLSLDLTKIMVTTVICGVPLLFRWWTKANFSVMGMVKSLTKSSMVKLILVWLTAILLFCWFYVYRSEGMKVYNSTLTWQQYGFLCGPRAWKETNMARTQILCSHLEGHRVTWTGRFKYVRVTEIDNSAESAINMLPFFLGDWMRCLYGEAYPSCSSGNTSTAEEELCRLKQLAKHPCHIKKFDRYKFEITVGMPFGTNGNRGHEEDDITKDIVLRASSEFKDVLLNLRQGSLIEFSTILEGRLGSKWPVFELKAISCLNCMTQLSPARRHVKIEQDWRSTVHGALKFAFDFFFFPFLSAA
With B1, the binding result in test [1] is recorded as “binds”.

B2: CISD2-myc (protein, UniProt Q8N5K1 1-135)
chain: MVLESVARIVKVQLPAYLKRLPVPESITGFARLTVSEWLRLLPFLGVLALLGYLAVRPFLPKKKQQKDSLINLKIQKENPKVVNEINIEDLCLTKAAYCRCWRSKTFPACDGSHNKHNELTGDNVGPLILKKKEV
As to B2, the binding result in the test with EGFP-WFS1 is recorded as “binds”.

B3: endogenous CISD2 (mouse brain) (protein, UniProt Q9CQB5 1-135)
chain: MVLDSVARIVKVQLPAYLKQLPVPDSITGFARLTVSDWLRLLPFLGVLALLGYLAVRPFFPKKKQQKDSLINLKIQKENPKVVNEINIEDLCLTKAAYCRCWRSKTFPACDGSHNKHNELTGDNVGPLILKKKEV
As for B3, in test [1], the binding result was “binds”.

B4: endogenous WFS1 (HEK293) (protein, UniProt O76024 1-890)
chain: MDSNTAPLGPSCPQPPPAPQPQARSRLNATASLEQERSERPRAPGPQAGPGPGVRDAAAPAEPQAQHTRSRERADGTGPTKGDMEIPFEEVLERAKAGDPKAQTEVGKHYLQLAGDTDEELNSCTAVDWLVLAAKQGRREAVKLLRRCLADRRGITSENEREVRQLSSETDLERAVRKAALVMYWKLNPKKKKQVAVAELLENVGQVNEHDGGAQPGPVPKSLQKQRRMLERLVSSESKNYIALDDFVEITKKYAKGVIPSSLFLQDDEDDDELAGKSPEDLPLRLKVVKYPLHAIMEIKEYLIDMASRAGMHWLSTIIPTHHINALIFFFIVSNLTIDFFAFFIPLVIFYLSFISMVICTLKVFQDSKAWENFRTLTDLLLRFEPNLDVEQAEVNFGWNHLEPYAHFLLSVFFVIFSFPIASKDCIPCSELAVITGFFTVTSYLSLSTHAEPYTRRALATEVTAGLLSLLPSMPLNWPYLKVLGQTFITVPVGHLVVLNVSVPCLLYVYLLYLFFRMAQLRNFKGTYCYLVPYLVCFMWCELSVVILLESTGLGLLRASIGYFLFLFALPILVAGLALVGVLQFARWFTSLELTKIAVTVAVCSVPLLLRWWTKASFSVVGMVKSLTRSSMVKLILVWLTAIVLFCWFYVYRSEGMKVYNSTLTWQQYGALCGPRAWKETNMARTQILCSHLEGHRVTWTGRFKYVRVTDIDNSAESAINMLPFFIGDWMRCLYGEAYPACSPGNTSTAEEELCRLKLLAKHPCHIKKFDRYKFEITVGMPFSSGADGSRSREEDDVTKDIVLRASSEFKSVLLSLRQGSLIEFSTILEGRLGSKWPVFELKAISCLNCMAQLSPTRRHVKIEHDWRSTVHGAVKFAFDFFFFPFLSAA
As to B4, the binding entry in test [2] was “binds”.
